Biological target: recombinant human baculovirus-expressed cMET (Homo sapiens (Human), UniProt P08581)
Test: C-MET Kinase Assay (HTRF KinEASE)
Format: biochemical
Details: average of two or more determinations
Procedure: The cMET kinase assay was performed in 384-well Fluotrac™ 200 HiBase microplates using the HTRF KinEASE™ assay described above for AXL except that the assay volume was reduced to half. Enzyme concentration was 8 ng/mL of recombinant human baculovirus-expressed cMET while the substrate concentrations were 0.1 μM and 0.02 μM for the biotinylated peptide and ATP, respectively. Instead of the Multidrop Combi, the BioRAPTR® FRD microfluidic workstation (Beckman Coulter, Brea, Calif.) was utilized for reagent additions.
Inhibition curves for compounds were generated by plotting percent control activity versus log 10 of the concentration of compound. IC50 values were calculated by nonlinear regression using the sigmoidal dose-response (variable slope) equation in GraphPad Prism as follows: y=bottom+(top−bottom)/(1+10(log IC50−x)*Hill Slope) where y is the % kinase activity at a given concentration of compound, x is the logarithm of the concentration of compound, bottom is the % of control kinase activity at the highest compound concentration tested, and top is the % of control kinase activity at the lowest compound concentration examined. The values for bottom and top were fixed at 0 and 100, respectively.

With `CCn1nc(C(=O)Nc2ccc(Oc3ccnc4cc(OC)c(OC)cc34)c(C(C)C)c2)c(=O)n(-c2ccc(F)cc2)c1=O` [Example 165, 2-Ethyl-4-(4-fluoro-phenyl)-3,5-dioxo-2,3,4,5-tetrahydro-1,2,4-triazine-6-carboxylic acid [4-(6,7-dimethoxy-quinolin-4-yloxy)-3-isopropyl-phenyl]-amide] the IC50 was 10 to 100 nM.
